Consider seven molecules from paper PMC2386257.

Results are given in words; binding and its absence hold for the method and conditions named. Binding calls can cover weak binding; strength is not graded here.

Common to all, as to assay: two-hybrid; systematic array-based yeast two-hybrid screen of the T. pallidum proteome; baits in pAS1-loxP or pLP-GBKT7Amp against arrayed preys in pLP-GADT7
For test [1], the target named is T1, (anti-) termination protein NusA (Treponema pallidum) (UniProt O83862).
T1 sequence: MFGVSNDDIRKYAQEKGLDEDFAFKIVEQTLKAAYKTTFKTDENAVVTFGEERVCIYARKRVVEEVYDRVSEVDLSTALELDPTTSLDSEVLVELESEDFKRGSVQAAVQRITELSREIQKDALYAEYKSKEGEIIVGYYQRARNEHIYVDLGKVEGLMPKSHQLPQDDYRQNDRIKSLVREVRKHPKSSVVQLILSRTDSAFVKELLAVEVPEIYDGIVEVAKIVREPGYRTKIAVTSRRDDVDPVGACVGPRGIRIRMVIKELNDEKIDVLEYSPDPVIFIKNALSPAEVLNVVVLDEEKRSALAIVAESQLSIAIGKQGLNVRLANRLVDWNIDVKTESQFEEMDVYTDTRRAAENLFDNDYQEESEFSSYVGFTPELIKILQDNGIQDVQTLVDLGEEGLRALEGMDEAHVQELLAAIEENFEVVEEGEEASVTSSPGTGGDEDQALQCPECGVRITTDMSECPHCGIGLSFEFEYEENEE

Test [2] addresses T2, replication helicase DnaB (Treponema pallidum) (UniProt O83097).
T2 sequence: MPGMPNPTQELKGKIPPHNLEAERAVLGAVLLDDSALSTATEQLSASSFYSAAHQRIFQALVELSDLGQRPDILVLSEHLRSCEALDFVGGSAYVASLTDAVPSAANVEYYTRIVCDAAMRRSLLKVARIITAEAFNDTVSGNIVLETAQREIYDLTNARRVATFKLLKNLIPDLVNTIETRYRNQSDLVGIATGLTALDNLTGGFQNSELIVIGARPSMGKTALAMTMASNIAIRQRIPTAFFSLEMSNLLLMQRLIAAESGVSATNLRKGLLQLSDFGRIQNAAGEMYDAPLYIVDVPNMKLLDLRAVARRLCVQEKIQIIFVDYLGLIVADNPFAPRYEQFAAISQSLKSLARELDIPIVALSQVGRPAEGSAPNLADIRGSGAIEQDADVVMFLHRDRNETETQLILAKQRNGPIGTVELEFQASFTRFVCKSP

Test [3] deals with T3, recX (Treponema pallidum) (UniProt B2S4R0).
T3 sequence: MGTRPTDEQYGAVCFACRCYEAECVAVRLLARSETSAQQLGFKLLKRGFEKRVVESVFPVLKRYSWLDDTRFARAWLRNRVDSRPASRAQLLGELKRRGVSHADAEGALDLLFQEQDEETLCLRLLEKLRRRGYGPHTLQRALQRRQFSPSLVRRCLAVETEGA

Test [4] deals with T4, DNA primase (DnaG) (Treponema pallidum) (UniProt O83505).
T4 sequence: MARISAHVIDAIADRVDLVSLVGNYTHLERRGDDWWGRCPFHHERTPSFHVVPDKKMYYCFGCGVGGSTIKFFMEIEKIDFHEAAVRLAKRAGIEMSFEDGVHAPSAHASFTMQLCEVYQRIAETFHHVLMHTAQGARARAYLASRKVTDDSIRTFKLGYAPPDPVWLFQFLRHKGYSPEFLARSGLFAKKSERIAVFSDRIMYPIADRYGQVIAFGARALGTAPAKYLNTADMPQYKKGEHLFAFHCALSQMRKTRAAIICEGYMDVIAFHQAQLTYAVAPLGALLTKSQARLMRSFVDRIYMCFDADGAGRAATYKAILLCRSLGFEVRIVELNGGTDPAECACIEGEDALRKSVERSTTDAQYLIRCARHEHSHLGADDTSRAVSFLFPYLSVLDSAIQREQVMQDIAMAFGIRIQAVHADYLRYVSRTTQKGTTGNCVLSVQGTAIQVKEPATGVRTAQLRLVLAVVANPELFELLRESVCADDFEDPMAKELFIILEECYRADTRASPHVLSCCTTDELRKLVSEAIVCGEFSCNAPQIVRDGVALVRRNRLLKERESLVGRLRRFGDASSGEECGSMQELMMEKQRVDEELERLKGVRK

Test [5] has as its target TP0965 (Treponema pallidum) (UniProt O83931).
Test [6] deals with exonuclease for dsDNA (Treponema pallidum).
Test [7] addresses DNA repair helicase TP0380 (Treponema pallidum) (UniProt O83395).

Consider RNA helicase HrpA (from UniProt O83538), for which the binding entry in test [1] is given as “binds”.
Regarding TP0050 (from UniProt O83089), the binding result in test [2] was “binds”.
With TP0443 (from UniProt O83457), in test [3], the binding entry is on record as “binds”.
As for TP0496 (from UniProt O83509), in test [4], the binding result was “binds”.
TP0963 (from UniProt O83929): in test [5], the binding entry is given as “binds”.

B1: TP0320 (protein, UniProt O83340 1-51)
chain: MPPVPARGRPSSSSDFCLYGMAVVNGFCVQDIPYGSRVVLPGRMRSSSAGA
Take B1: the binding result in test [6] is “binds”.

B2: TP0183 (protein, UniProt O83213 1-281)
chain: MKKGVRSSRLLILFVLFAHAVHAAPRVGVYRLEVSGVPAHTETTINDALFSFIRELRGYHVVDCREQAVPHRFPEKGNLDYIFCGAMDLTPEGIRLAVALKGKDHNATRLLSKTYETAARILLDSRHLVRDVFDRSVPLTGNQTETSSMRHTRAGEESVSSLDALAGSWHSTEEGERIVIVSEGRGIAVLRSGLSVPLKLKISDGVLVVSQKGAVNARQFSHFPPEIAQKLAQEARPLQWRFPKISGNNRLSGVRTAPVVRGAGHTASVEYEEVPEEWVRN
As for B2, the binding result in test [7] is recorded as “binds”.
